Compound in the experiment: Nc1ncnc2c1ncn2[C@@H]1O[C@H](COP(=O)(O)OP(=O)(O)OP(=O)(O)O)[C@@H](O)[C@H]1O [adenosine triphosphate]
The experiment can be described thus: NP40-soluble protein abundance relative to vehicle (solubility fold change) (ratio); higher = more soluble protein in presence of ATP. In short, it runs like this:
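Across three independent experiments, values are fold changes against the detergent-processed vehicle for each replicate, based on vsn-normalised intensities. The samples were Jurkat crude lysate treated with eight concentrations (0.1 to 10 mM) for 10 min at room temperature and then 3 min at 37 °C. Lysate was solubilised with 0.8% NP40 and benzonase, ultracentrifuged, and the supernatant analysed by TMT-labelled LC-MS/MS.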

Chains of the proteins cited; added tags and fusions are not shown. Lines headed by an entry give the natural chain unless they say otherwise; changes in a name come on top.
UniProt Q6PIW4: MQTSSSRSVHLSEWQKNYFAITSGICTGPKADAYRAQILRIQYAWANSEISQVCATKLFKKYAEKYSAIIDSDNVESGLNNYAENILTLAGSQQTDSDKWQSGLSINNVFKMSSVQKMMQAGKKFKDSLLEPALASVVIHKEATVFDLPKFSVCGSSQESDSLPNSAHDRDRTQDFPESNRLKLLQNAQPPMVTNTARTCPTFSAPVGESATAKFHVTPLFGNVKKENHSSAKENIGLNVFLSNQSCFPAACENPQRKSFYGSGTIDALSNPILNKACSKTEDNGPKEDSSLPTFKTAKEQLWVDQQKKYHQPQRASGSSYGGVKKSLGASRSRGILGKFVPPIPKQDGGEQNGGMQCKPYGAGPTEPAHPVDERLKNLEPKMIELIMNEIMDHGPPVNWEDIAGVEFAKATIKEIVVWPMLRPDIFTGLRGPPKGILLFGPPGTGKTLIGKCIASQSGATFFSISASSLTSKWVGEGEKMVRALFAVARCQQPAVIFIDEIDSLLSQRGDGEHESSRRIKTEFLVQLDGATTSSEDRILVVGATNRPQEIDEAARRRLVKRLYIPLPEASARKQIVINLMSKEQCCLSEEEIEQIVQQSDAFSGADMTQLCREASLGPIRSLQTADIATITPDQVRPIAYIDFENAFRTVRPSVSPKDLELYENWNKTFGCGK
UniProt Q7Z7A1: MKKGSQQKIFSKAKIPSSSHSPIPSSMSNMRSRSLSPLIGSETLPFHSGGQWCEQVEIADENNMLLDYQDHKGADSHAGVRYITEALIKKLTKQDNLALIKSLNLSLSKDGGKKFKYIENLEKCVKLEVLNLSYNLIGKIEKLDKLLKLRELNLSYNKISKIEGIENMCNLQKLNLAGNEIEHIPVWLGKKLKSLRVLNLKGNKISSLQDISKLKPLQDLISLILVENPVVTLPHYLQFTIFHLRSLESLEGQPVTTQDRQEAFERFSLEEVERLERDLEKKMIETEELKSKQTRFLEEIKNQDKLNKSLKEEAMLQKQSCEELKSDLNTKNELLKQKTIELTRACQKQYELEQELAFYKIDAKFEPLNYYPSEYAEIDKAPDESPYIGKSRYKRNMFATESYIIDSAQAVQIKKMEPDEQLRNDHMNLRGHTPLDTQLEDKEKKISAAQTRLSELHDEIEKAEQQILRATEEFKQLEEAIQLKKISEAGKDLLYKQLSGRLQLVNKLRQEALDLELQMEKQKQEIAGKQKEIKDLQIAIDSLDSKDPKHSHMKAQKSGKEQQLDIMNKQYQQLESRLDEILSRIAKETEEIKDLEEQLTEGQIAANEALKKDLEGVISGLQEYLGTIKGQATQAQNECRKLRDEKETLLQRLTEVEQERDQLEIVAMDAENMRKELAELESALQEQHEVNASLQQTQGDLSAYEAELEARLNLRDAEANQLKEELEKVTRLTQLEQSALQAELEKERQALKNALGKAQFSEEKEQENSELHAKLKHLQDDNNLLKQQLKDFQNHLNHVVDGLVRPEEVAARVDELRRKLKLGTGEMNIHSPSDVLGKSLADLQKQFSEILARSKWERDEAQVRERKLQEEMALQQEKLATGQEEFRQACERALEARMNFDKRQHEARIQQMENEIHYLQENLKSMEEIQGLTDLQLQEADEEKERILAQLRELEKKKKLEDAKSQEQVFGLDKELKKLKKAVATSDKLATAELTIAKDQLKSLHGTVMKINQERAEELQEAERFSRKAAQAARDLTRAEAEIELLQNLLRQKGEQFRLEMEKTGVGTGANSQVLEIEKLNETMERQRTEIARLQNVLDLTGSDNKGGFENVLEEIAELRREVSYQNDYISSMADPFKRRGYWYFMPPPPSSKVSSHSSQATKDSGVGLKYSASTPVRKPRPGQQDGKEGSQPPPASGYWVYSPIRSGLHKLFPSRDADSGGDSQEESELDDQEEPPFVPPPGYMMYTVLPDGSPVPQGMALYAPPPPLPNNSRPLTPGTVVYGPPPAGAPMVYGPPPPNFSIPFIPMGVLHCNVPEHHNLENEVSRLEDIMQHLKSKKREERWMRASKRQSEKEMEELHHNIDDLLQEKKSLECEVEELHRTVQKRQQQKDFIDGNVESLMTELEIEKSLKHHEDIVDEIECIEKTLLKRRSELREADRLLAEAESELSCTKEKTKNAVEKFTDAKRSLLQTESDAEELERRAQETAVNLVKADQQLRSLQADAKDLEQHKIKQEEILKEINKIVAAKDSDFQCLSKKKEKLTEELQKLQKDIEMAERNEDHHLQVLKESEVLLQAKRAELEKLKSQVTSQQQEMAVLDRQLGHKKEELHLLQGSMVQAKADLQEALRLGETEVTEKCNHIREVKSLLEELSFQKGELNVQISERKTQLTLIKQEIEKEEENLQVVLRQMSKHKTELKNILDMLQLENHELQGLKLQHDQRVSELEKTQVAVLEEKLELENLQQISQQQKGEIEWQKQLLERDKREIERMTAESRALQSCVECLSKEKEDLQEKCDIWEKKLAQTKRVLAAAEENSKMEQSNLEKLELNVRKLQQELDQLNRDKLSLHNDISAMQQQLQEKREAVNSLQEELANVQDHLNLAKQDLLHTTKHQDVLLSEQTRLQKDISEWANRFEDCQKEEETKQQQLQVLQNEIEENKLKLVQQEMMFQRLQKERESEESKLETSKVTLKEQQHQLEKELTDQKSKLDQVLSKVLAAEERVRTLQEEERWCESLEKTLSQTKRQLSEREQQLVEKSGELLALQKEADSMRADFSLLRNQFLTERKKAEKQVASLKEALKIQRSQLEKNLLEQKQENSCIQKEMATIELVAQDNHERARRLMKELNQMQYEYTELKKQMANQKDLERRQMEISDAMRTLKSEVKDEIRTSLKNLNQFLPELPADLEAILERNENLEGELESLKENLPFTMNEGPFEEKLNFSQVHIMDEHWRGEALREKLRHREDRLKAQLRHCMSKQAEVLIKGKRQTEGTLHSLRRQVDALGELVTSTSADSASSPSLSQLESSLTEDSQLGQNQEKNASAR
UniProt Q86W92: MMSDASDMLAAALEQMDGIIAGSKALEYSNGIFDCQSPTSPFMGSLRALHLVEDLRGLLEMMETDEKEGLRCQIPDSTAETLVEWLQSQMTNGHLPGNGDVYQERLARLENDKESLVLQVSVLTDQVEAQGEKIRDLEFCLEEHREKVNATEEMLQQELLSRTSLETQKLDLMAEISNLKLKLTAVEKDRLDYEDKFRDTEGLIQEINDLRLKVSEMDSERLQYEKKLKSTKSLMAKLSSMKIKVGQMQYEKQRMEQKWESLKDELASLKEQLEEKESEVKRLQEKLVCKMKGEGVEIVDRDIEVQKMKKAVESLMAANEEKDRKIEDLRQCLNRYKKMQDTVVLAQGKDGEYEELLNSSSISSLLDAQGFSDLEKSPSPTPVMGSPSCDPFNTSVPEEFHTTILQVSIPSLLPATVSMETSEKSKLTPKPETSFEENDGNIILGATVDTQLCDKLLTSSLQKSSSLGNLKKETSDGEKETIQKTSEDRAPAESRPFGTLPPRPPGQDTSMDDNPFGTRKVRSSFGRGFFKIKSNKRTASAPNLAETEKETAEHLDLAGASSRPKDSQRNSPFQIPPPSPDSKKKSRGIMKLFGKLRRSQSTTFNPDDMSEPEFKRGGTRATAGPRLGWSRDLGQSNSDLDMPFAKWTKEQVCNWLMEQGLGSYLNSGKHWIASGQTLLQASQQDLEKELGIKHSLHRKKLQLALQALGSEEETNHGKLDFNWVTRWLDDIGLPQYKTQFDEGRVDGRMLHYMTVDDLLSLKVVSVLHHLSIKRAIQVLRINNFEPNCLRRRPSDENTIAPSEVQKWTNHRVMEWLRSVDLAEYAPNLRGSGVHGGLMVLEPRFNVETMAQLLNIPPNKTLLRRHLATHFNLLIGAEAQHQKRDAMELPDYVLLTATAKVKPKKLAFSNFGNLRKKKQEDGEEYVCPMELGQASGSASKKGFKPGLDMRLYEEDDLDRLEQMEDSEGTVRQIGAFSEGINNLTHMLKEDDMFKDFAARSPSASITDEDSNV
UniProt Q6SJ93: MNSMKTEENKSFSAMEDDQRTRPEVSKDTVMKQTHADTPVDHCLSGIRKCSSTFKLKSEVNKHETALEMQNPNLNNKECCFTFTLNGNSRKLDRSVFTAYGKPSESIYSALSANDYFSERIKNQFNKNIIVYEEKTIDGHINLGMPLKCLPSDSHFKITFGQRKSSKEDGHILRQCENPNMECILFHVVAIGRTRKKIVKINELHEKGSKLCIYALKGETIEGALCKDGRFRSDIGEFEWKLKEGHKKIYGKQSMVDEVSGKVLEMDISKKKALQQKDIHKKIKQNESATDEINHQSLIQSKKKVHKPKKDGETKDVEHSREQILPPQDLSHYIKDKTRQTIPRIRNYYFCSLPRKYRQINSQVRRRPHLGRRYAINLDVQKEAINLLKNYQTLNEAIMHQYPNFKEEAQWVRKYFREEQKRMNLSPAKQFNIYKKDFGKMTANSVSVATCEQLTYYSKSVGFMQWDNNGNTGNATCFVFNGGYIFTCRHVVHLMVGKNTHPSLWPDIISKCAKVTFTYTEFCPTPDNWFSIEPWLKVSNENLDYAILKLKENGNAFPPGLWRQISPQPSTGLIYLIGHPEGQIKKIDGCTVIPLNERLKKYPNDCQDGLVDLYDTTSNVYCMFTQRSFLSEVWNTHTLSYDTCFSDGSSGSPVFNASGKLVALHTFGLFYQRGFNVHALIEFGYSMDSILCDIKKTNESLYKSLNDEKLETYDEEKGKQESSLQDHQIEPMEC
UniProt Q7L1T6: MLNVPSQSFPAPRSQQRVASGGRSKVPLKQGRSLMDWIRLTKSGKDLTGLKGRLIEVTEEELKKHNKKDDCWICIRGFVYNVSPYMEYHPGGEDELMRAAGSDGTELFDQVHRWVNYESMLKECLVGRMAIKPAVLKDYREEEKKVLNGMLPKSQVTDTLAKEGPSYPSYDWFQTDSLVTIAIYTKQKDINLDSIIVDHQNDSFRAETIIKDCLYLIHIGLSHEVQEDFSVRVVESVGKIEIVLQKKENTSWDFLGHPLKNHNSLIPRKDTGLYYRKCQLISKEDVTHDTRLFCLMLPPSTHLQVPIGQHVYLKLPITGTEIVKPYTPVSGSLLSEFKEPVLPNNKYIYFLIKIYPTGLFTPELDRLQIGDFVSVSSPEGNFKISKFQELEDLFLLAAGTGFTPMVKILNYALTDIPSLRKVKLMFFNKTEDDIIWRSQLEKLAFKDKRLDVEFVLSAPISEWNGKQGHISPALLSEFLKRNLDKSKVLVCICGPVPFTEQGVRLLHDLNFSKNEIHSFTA
UniProt Q6UXB8: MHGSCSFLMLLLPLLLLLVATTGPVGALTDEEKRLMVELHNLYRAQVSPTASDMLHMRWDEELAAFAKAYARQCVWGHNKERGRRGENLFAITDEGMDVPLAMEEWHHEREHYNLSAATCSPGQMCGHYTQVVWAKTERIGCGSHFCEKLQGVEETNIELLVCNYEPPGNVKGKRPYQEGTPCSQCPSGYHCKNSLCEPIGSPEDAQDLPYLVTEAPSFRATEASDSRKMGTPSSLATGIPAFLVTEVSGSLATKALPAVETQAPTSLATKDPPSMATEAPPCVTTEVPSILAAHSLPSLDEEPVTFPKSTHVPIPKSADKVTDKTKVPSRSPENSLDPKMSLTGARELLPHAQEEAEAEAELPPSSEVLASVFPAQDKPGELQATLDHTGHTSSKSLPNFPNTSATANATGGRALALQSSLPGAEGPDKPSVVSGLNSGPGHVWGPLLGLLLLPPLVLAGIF
UniProt Q86TI2: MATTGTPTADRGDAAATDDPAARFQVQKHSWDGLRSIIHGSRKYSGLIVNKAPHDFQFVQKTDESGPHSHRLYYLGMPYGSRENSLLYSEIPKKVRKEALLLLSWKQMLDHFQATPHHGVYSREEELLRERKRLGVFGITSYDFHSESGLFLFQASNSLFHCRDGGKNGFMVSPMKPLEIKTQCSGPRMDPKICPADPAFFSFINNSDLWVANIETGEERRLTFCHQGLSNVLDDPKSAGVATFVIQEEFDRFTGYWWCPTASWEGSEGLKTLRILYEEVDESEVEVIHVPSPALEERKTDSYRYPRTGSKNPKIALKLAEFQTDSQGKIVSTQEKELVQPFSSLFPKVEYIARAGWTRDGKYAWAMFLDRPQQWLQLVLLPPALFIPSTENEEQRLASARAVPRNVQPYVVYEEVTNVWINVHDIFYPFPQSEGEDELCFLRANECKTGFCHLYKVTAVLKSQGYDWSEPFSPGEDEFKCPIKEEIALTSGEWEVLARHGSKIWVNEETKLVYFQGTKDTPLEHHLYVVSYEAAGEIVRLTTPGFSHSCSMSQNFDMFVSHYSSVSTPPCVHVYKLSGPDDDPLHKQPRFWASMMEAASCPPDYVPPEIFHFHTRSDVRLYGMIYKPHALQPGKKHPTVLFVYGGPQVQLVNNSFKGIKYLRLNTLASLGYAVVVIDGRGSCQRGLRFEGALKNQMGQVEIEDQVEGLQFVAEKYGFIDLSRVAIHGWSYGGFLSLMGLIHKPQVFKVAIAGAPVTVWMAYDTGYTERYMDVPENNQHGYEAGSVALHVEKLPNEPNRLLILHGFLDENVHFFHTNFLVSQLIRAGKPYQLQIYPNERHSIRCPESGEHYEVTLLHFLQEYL

± gives the standard deviation of the averaged measurements. This is a selection; strong and weak results do not stand in their true shares.

For the target UniProt Q7Z3J2 and related entries, the NP40-soluble protein abundance (concentration: 1mM) is 0.987 ± 0.097; the NP40-soluble protein abundance (concentration: 2mM) was 0.974 ± 0.058; the NP40-soluble protein abundance (concentration: 4mM) was determined as 0.995 ± 0.1; the NP40-soluble protein abundance (concentration: 6mM) was found to be 0.937 ± 0.074; the NP40-soluble protein abundance (concentration: 8mM) came out at 0.999 ± 0.071; the NP40-soluble protein abundance (concentration: 10mM) came to 0.999 ± 0.084.
As for UniProt Q75QN2 and related entries, the NP40-soluble protein abundance is, setting by setting: (concentration: 1mM) 1.11 ± 0.17; (concentration: 2mM) 1.06 ± 0.091; (concentration: 4mM) 1.09 ± 0.065; (concentration: 6mM) 1.01 ± 0.082; (concentration: 8mM) 1.17 ± 0.016; (concentration: 10mM) 1.14 ± 0.034.
For UniProt Q6PIW4 and related entries, the NP40-soluble protein abundance is, setting by setting: (concentration: 1mM) 1.05 ± 0.065; (concentration: 2mM) 0.994 ± 0.056; (concentration: 4mM) 0.975 ± 0.033; (concentration: 6mM) 0.9608 ± 0.0092; (concentration: 8mM) 0.992 ± 0.061; (concentration: 10mM) 0.994 ± 0.052.
For UniProt Q7Z7A1 and related entries, the NP40-soluble protein abundance is, setting by setting: (concentration: 1mM) 1.05 ± 0.25; (concentration: 2mM) 1 ± 0.092; (concentration: 4mM) 1.01 ± 0.12; (concentration: 6mM) 1.05 ± 0.12; (concentration: 8mM) 1.02 ± 0.079; (concentration: 10mM) 1.05 ± 0.14.
Consider UniProt Q6R327 and related entries, for which the NP40-soluble protein abundance reads like this: (concentration: 1mM) 1.23 ± 0.024; (concentration: 2mM) 1.2 ± 0.042; (concentration: 4mM) 1.18 ± 0.05; (concentration: 6mM) 1.12 ± 0.086; (concentration: 8mM) 1.16 ± 0.066; (concentration: 10mM) 1.17 ± 0.086.
For UniProt Q86W92 and related entries, the NP40-soluble protein abundance by setting is: (concentration: 1mM) 1.05 ± 0.097; (concentration: 2mM) 1.08 ± 0.034; (concentration: 4mM) 1.07 ± 0.058; (concentration: 6mM) 1.1 ± 0.089; (concentration: 8mM) 1.07 ± 0.11; (concentration: 10mM) 1.07 ± 0.018.
For the target UniProt Q6SJ93 and related entries, the NP40-soluble protein abundance by setting is: (concentration: 1mM) 0.99 ± 0.09; (concentration: 2mM) 0.971 ± 0.076; (concentration: 4mM) 0.971 ± 0.096; (concentration: 6mM) 0.945 ± 0.11; (concentration: 8mM) 0.93 ± 0.092; (concentration: 10mM) 0.935 ± 0.1.
As for CYB5R4 (UniProt Q7L1T6), the NP40-soluble protein abundance (concentration: 1mM) amounted to 0.993 ± 0.037; the NP40-soluble protein abundance (concentration: 2mM) came out at 0.993 ± 0.063; the NP40-soluble protein abundance (concentration: 4mM) was 0.977 ± 0.032; the NP40-soluble protein abundance (concentration: 6mM) came out at 0.982 ± 0.1; the NP40-soluble protein abundance (concentration: 8mM) turned out to be 1 ± 0.052; the NP40-soluble protein abundance (concentration: 10mM) was found to be 1 ± 0.058.
On to CAND1 (UniProt Q86VP6), for which the NP40-soluble protein abundance was 0.964 ± 0.019 (concentration: 1mM); 0.976 ± 0.043 (concentration: 2mM); 0.933 ± 0.024 (concentration: 4mM); 0.942 ± 0.037 (concentration: 6mM); 0.929 ± 0.041 (concentration: 8mM); 0.948 ± 0.039 (concentration: 10mM).
Take UniProt Q6PJW8 and related entries: the NP40-soluble protein abundance came to 0.963 ± 0.053 (concentration: 1mM); 0.963 ± 0.082 (concentration: 2mM); 0.915 ± 0.04 (concentration: 4mM); 1.03 ± 0.064 (concentration: 6mM); 0.944 ± 0.084 (concentration: 8mM); 0.938 ± 0.023 (concentration: 10mM).
UniProt Q6UXB8 and related entries: the NP40-soluble protein abundance reads like this: (concentration: 1mM) 0.96 ± 0.015; (concentration: 2mM) 0.995 ± 0.025; (concentration: 4mM) 0.942 ± 0.017; (concentration: 6mM) 1.01 ± 0.028; (concentration: 8mM) 0.962 ± 0.04; (concentration: 10mM) 0.947 ± 0.07.
Consider UniProt Q86UV5 and related entries, for which the NP40-soluble protein abundance runs as follows: (concentration: 1mM) 1.03 ± 0.07; (concentration: 2mM) 1.02 ± 0.062; (concentration: 4mM) 1 ± 0.047; (concentration: 6mM) 0.973 ± 0.08; (concentration: 8mM) 1.02 ± 0.039; (concentration: 10mM) 0.996 ± 0.027.
Consider TAOK1 (UniProt Q7L7X3), for which the NP40-soluble protein abundance reads like this: (concentration: 1mM) 1.01 ± 0.042; (concentration: 2mM) 1.03 ± 0.023; (concentration: 4mM) 1.1 ± 0.016; (concentration: 6mM) 1.08 ± 0.048; (concentration: 8mM) 1.04 ± 0.038; (concentration: 10mM) 1.01 ± 0.022.
UniProt Q6UWI4: the NP40-soluble protein abundance came out at 0.962 ± 0.046 (concentration: 1mM); 0.968 ± 0.07 (concentration: 2mM); 0.931 ± 0.11 (concentration: 4mM); 0.947 ± 0.065 (concentration: 6mM); 0.919 ± 0.097 (concentration: 8mM); 0.921 ± 0.08 (concentration: 10mM).
Turning to UniProt Q6ZMI0, the NP40-soluble protein abundance is, setting by setting: (concentration: 1mM) 0.992 ± 0.029; (concentration: 2mM) 1 ± 0.025; (concentration: 4mM) 0.985 ± 0.015; (concentration: 6mM) 1.01 ± 0.024; (concentration: 8mM) 0.941 ± 0.025; (concentration: 10mM) 0.966 ± 0.01.
As for DPP9 (UniProt Q86TI2), the NP40-soluble protein abundance came out at 1.05 ± 0.12 (concentration: 1mM); 1.02 ± 0.12 (concentration: 2mM); 1.01 ± 0.095 (concentration: 4mM); 0.937 ± 0.14 (concentration: 6mM); 1.03 ± 0.059 (concentration: 8mM); 1.01 ± 0.073 (concentration: 10mM).
